This is an account of results in PubChem BioAssay AID328 (DTP/NCI, 2004).

Structures are written as SMILES. The list is a part of this screen's results and no random one: it is rich in T/C values a quarter to a half above the control, in often repeated tests (any T/C) and in doses without a T/C. Other doses and runs of a compound stand elsewhere. T/C gives the treated animals as a percentage of the vehicle group. Some doses have a count of surviving animals in place of a T/C: the source holds a T/C of zero for them, seemingly a mark for toxic or unscored doses. Some survivor counts are full or nearly so, which does not show that the dose was tolerated: survival well below the control is almost never listed, so the zero probably covers shortened survival too. Counts of survivors are from the toxicity check (mostly the fifth day) where no day follows; animals may have died later. Schedules are NCI's codes, taken here to give the interval after Q, in days (D) or hours (H), and the number of doses after X. Where survival is the endpoint, this PubChem deposit counts one and a half times the control or more as active, and values a quarter to a half above the control carry no call in these data; other NCI protocols may use other cut-offs. Some doses were run more than once; their values stand side by side, smallest first. Some T/C values are followed by the survivors on the day toxicity was checked, most often the fifth; where none is given, no animal had died by that day.

The test system of this assay is BDF1 mice, P388 leukemia ip, median survival T/C. Description: NCI In Vivo Anticancer Drug Screen. Data for tumor model P388 Leukemia (intraperitoneal) in B6D2F1 (BDF1) mice. The note with it: T/C endpoint: median survival time, higher T/C = longer survival. The method in brief: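 Compound-treated tumour-bearing mice were compared with vehicle-treated controls. Survival was recorded, and the value is the treated-group measurement divided by the control-group measurement (T/C).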

Where [1] appears, read: dose: 200.0 mg/kg/injection, schedule: Q01DX009 (ip), vehicle: saline with Tween-80.
Setting [2] is: dose: 100.0 mg/kg/injection, schedule: Q01DX009 (ip), vehicle: saline with Tween-80.
Where [3] appears, read: dose: 50.0 mg/kg/injection, schedule: Q01DX009 (ip), vehicle: saline with Tween-80.
[4] abbreviates: dose: 200.0 mg/kg/injection, schedule: Q01DX009 (ip), vehicle: saline.
Setting [5] is: dose: 400.0 mg/kg/injection, schedule: Q04DX003 (ip), vehicle: saline with Tween-80.
The mark [6] stands for this setting: dose: 50.0 mg/kg/injection, schedule: Q01DX009 (ip), vehicle: Klucel (hydroxypropylcellulose) (HPC).

Consider `C[N+]1(C)N=C([O-])N(c2ccccc2C(F)(F)F)C1=O`, for which the survivor count under setting [1] is 4 of 6.
As to `COc1cc(/C=N/NC(=O)c2ccncc2)cc(OC)c1OC`, for the setting “dose: 100.0 mg/kg/injection, schedule: Q01DX009 (ip), vehicle: Klucel (hydroxypropylcellulose) (HPC)”, the T/C is 127 % of control.
Take `CN1CCCC1CCNc1nc(C(Cl)(Cl)Cl)nc2ccc(Cl)cc12` (centres undefined): the survivor count runs as follows: under setting [2], 5 of 6; (dose: 200.0 mg/kg/injection, schedule: Q04DX003 (ip), vehicle: saline with Tween-80) 1 of 6.
With `Cc1ccc(C(=O)C2CC2)cc1C`, the T/C reads like this: under setting [3], 135 % of control; under setting [2], 130 % of control.
As for `C=CCCC(=O)OC(C)(C)C`, the T/C was 126 % of control [5 of 6 alive] (dose: 50.0 mg/kg/injection, schedule: Q01DX009 (ip), vehicle: saline); 128 % of control (dose: 100.0 mg/kg/injection, schedule: Q01DX009 (ip), vehicle: water); 126 % of control under setting [4]; 134 % of control (dose: 200.0 mg/kg/injection, schedule: Q01DX009 (ip), vehicle: water).
For `CN(C)c1ccc(/C=C/c2ccnc3ccc(I)cc23)cc1`, the survivor count (dose: 25.0 mg/kg/injection, schedule: Q01DX009 (ip), vehicle: saline with Tween-80) is given as 2 of 6; the survivor count under setting [3] is given as 0 of 6; the survivor count under setting [2] is listed as 5 of 6; the survivor count under setting [1] is 4 of 6.
As to `Oc1cccc2cccnc12.[Cu+].[O-]c1cccc2cccnc12`, the survivor count runs as follows: (dose: 7.5 mg/kg/injection, schedule: Q01DX009 (ip), vehicle: saline) 6 of 6; (dose: 15.0 mg/kg/injection, schedule: Q01DX009 (ip), vehicle: saline) 4 of 6; (dose: 22.7 mg/kg/injection, schedule: Q01DX009 (ip), vehicle: saline) 4 of 6; (dose: 35.0 mg/kg/injection, schedule: Q01DX009 (ip), vehicle: saline) 3 of 6; (dose: 35.0 mg/kg/injection, schedule: Q04DX003 (ip), vehicle: saline) 5 of 6.
As to `Nc1n[nH]c(N)n1.[Ni]`, the survivor count (dose: 400.0 mg/kg/injection, schedule: Q01DX009 (ip), vehicle: saline with Tween-80) is 6 of 6.
On to `C=C(Cl)CSC(=N)N`, for which the survivor count (dose: 75.0 mg/kg/injection, schedule: Q01DX009 (ip), vehicle: saline) is 1 of 6; the survivor count (dose: 150.0 mg/kg/injection, schedule: Q01DX009 (ip), vehicle: saline) is 0 of 6; the survivor count (dose: 300.0 mg/kg/injection, schedule: Q01DX009 (ip), vehicle: saline) is reported as 0 of 6.
In the case of `NC1CSSC1`, the T/C is, setting by setting: (dose: 0.78 mg/kg/injection, schedule: Q01DX009 (ip), vehicle: water, evaluated on day 21) 106 % of control; (dose: 0.78 mg/kg/injection, schedule: Q01DX009 (ip), vehicle: water, evaluated on day 30) 97 and 108 % of control; (dose: 1.56 mg/kg/injection, schedule: Q01DX009 (ip), vehicle: water, evaluated on day 21) 108 % of control; (dose: 1.56 mg/kg/injection, schedule: Q01DX009 (ip), vehicle: water, evaluated on day 30) 94, 100, 101 % of control; (dose: 3.12 mg/kg/injection, schedule: Q01DX009 (ip), vehicle: water, evaluated on day 21) 101 % of control; (dose: 3.12 mg/kg/injection, schedule: Q01DX009 (ip), vehicle: water, evaluated on day 30) 93, 97, 171 % of control. In addition, the survivor count is 6 of 6 (dose: 0.78 mg/kg/injection, schedule: Q01DX009 (ip), vehicle: water); 5 of 6 (dose: 12.5 mg/kg/injection, schedule: Q01DX009 (ip), vehicle: water); 0 of 6 (dose: 12.5 mg/kg/injection, schedule: Q04DX003 (ip), vehicle: water).
For `CNC(=O)C(C)C1C(=O)/C(=C(O)/C=C/C(C)=C\C(C)C2OC3(C)OC(C=CC34CO4)C2C)C(=O)N1C1CCC(O)C(C)O1` (centres undefined), the T/C is, setting by setting: (dose: 100.0 mg/kg/injection, schedule: Q01DX009 (ip), vehicle: saline) 131 % of control; under setting [4], 140 % of control. In addition, the survivor count is, setting by setting: (dose: 130.0 mg/kg/injection, schedule: Q01DX009 (ip), vehicle: Klucel (hydroxypropylcellulose) (HPC)) 3 of 6; (dose: 300.0 mg/kg/injection, schedule: Q01DX009 (ip), vehicle: Klucel (hydroxypropylcellulose) (HPC)) 5 of 6.
Regarding `CC(C)=CCc1cc(O)ccc1O`, the T/C by setting is: (dose: 1.56 mg/kg/injection, schedule: Q01DX009 (ip), vehicle: saline with Tween-80) 131 % of control; (dose: 3.12 mg/kg/injection, schedule: Q01DX009 (ip), vehicle: saline with Tween-80) 138 % of control; (dose: 12.5 mg/kg/injection, schedule: Q01DX009 (ip), vehicle: saline with Tween-80) 126 % of control.
`O=C(Nc1nnc(C(F)(F)F)s1)c1c(F)cccc1F`: the survivor count reads like this: under setting [2], 3 of 6; under setting [1], 0 of 6.
Turning to `CCCCCCCCCCC[N+](C)(C)CC[N+](C)(C)CCCCCCCCCCC`, the survivor count under setting [3] was 0 of 6, the survivor count under setting [2] is 0 of 6 and the survivor count under setting [1] is given as 0 of 6.
Regarding `CS(=O)(=O)OCCNC[C@@H](O)[C@@H](O)CNCCOS(C)(=O)=O`, the survivor count is listed as 6 of 6 (dose: 8.2 mg/kg/injection, schedule: Q01DX009 (ip), vehicle: saline); 6 of 6 (dose: 16.5 mg/kg/injection, schedule: Q01DX009 (ip), vehicle: saline); 6 of 6 (dose: 33.0 mg/kg/injection, schedule: Q01DX009 (ip), vehicle: saline); 5 of 6 (dose: 50.0 mg/kg/injection, schedule: Q04DX003 (ip), vehicle: saline); 5 of 6 (dose: 75.0 mg/kg/injection, schedule: Q04DX003 (ip), vehicle: saline); 4 of 6 (dose: 100.0 mg/kg/injection, schedule: Q04DX003 (ip), vehicle: saline). Moreover, the T/C (dose: 25.0 mg/kg/injection, schedule: Q04DX003 (ip), vehicle: saline) was 145 % of control.
As for `CCOC(=O)c1c(C)c2c(n1C)CCc1cn[nH]c1-2`, the T/C (dose: 400.0 mg/kg/injection, schedule: Q01DX009 (ip), vehicle: Klucel (hydroxypropylcellulose) (HPC)) is 130 % of control [4 of 6 alive].
As to `COC(=O)c1[nH]c(=O)[nH]c(=O)c1F`, the T/C (dose: 75.0 mg/kg/injection, schedule: Q04DX003 (ip), vehicle: saline with Tween-80) is 131 % of control.
On to `[I][Hg][CH2]C1COC([CH2][Hg][I])CO1` (centres undefined), for which, for the setting “dose: 6.25 mg/kg/injection, schedule: Q01DX010 (ip), vehicle: saline”, the T/C is 131 % of control [5 of 6 alive].
For `CCC(=O)Oc1c(Cl)c(Cl)c(C#N)c(Cl)c1Cl`, the survivor count under setting [5] was 5 of 6.
As to `Cc1cc(=O)[nH]c(N/N=C2/CCCCC2C)n1` (centres undefined), the survivor count is on record as 6 of 6 (dose: 33.0 mg/kg/injection, schedule: Q01DX009 (ip), vehicle: Klucel (hydroxypropylcellulose) (HPC)); 6 of 6 under setting [6]; 6 of 6 (dose: 75.0 mg/kg/injection, schedule: Q01DX009 (ip), vehicle: Klucel (hydroxypropylcellulose) (HPC)); 5 of 6 (dose: 200.0 mg/kg/injection, schedule: Q01DX009 (ip), vehicle: Klucel (hydroxypropylcellulose) (HPC)); 2 of 6 (dose: 400.0 mg/kg/injection, schedule: Q04DX003 (ip), vehicle: Klucel (hydroxypropylcellulose) (HPC)). In addition, the T/C under setting [6] was 131 % of control.
For `CCN(CC)CCNc1ccc(N=Nc2cnc3ccccc3c2)c2ccccc12`, the survivor count (dose: 170.0 mg/kg/injection, schedule: Q01DX009 (ip), vehicle: Klucel (hydroxypropylcellulose) (HPC)) is 6 of 6.
On to `Cc1cc(C)c(C#N)c([S][Sn]([Cl])([Cl])[S]c2nc(C)cc(C)c2C#N)n1`, for which, under setting [5], the survivor count was 1 of 6.
`NC(=O)c1ccc(Cl)c(Cl)c1`: the survivor count (dose: 400.0 mg/kg/injection, schedule: Q04DX003 (ip), vehicle: other) is reported as 2 of 6.
